From paper PMC9346003
Results are given in words; binding and its absence hold for the method and conditions named. Binding seen in cells or lysates may run through a third protein. Binding calls can cover weak binding; strength is not graded here. Sequences can lack the tags named with a protein.

How the values were obtained:
[1] = biological target: T1, GST-TAK1 (full length 1-606 aa) (UniProt O43318); assay: pull-down; GST-TAK1 or GST-vector and GPX4 incubated in lysis buffer overnight at 4 °C; GST-agarose added for 4 h at 4 °C, washed four times; blot with anti-GPX4; GPX4 bought as purified protein, whether the GST proteins were purified beforehand is not told
T1 sequence: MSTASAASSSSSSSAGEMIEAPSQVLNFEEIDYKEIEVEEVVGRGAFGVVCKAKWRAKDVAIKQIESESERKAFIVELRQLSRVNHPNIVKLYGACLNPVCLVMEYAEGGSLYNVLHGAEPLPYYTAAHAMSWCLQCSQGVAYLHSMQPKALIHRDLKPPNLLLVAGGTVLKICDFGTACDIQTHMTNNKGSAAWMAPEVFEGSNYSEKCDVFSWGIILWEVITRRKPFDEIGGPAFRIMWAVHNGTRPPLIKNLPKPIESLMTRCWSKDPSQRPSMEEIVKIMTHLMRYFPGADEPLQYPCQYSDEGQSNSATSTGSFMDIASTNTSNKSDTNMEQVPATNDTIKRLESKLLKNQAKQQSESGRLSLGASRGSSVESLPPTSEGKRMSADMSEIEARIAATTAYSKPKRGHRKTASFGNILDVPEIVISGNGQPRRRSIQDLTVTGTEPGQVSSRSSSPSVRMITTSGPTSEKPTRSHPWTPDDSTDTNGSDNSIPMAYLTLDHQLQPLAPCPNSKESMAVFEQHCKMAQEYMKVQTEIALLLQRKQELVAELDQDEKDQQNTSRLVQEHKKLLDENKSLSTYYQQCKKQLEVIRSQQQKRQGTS

[2] = biological target: T2, GST-TAK1 (N-terminal 1-305 aa) (UniProt O43318); assay: as above
T2 sequence: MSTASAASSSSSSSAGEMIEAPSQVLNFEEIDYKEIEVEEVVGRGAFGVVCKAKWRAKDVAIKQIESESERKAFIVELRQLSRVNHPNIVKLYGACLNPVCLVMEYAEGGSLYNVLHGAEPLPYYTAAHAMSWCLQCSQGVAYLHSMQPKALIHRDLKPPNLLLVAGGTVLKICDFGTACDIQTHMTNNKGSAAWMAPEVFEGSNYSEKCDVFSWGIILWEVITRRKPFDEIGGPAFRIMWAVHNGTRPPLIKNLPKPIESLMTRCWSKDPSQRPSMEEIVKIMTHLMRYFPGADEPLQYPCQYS

With “recombinant human GPX4 protein (Abcam ab82660)” the binding [1] was “binds” and the binding [2] was “binds”.
